{"source": "PubChem BioAssay AID540276", "about": "(National Center for Advancing Translational Sciences (NCATS), 2011)", "note": "In all, about 300,000 compounds went through this assay and about 5,400 (1.8%) were called active. Inconclusive means that the source gave no clear call. Such entries were picked first, then a sample of the others. The call rests on the fitted dose curve; tested in HEK293 cells. Potencies beside an inconclusive call are fits to weak or partial responses and may not hold up. On the % scale 0 is the no-effect control and ±100 the full control effect; potency means the concentration at half of the fitted maximal effect."}
{"assay": "qHTS for inhibitors of binding or entry into cells for Marburg Virus", "settings": "Marburg virus pseudotyped entry inhibition, cell reporter; activity change, negative = inhibition: at 37.8 µM (top of the series) unless noted"}
{"smiles": "CCN1CCN(c2cc(C)c3cc(NC(=O)CCC(=O)N4CCN(c5ccccc5OC)CC4)ccc3n2)CC1", "Potency": "inconclusive: 8.91 µM [inhibitor, partial curve, poor fit]"}
{"smiles": "COc1ccc(NC(=O)C(NC(=O)/C=C\\c2ccc3c(c2)OCO3)c2ccccc2)cc1", "note": "(stereo not drawn)", "Potency": "inconclusive: 12.6 µM [inhibitor, partial curve, poor fit]"}
{"smiles": "CNc1ccc2oc(C[C@H]3O[C@]4(CC[C@H]3C)O[C@H]([C@H](C)C(=O)c3ccc[nH]3)[C@H](C)C[C@H]4C)nc2c1C(=O)O", "Potency": "active: 0.708 µM"}
{"smiles": "O=C(Nc1ccccc1N1CCOCC1)c1cc(-c2ccncc2)nc2ccccc12", "Potency": "inconclusive: 7.08 µM [inhibitor, full curve]"}
{"smiles": "COc1ccc(C/C(=N\\O)c2ccc(OC)cc2)cc1", "Potency": "inactive"}
{"smiles": "CCNC(=O)C(=O)NCCc1ccc(Cl)cc1", "Potency": "inactive"}
{"smiles": "Cc1ccc2c(c1)N(CCCC(=O)NCc1cccc(F)c1)C(=O)CO2", "Potency": "inconclusive: 1 µM [activator, full curve, poor fit]"}
{"smiles": "Cc1nnc(NC(=O)CSc2nccn2-c2ccc(F)cc2)s1", "Potency": "inactive"}
{"smiles": "c1ccc(-c2cn3cccnc3n2)cc1", "Potency": "inactive"}
{"smiles": "COc1ccccc1OCC(=O)Nc1c(C(=O)c2ccc(F)cc2)oc2ccccc12", "Potency": "inconclusive: 4.47 µM [activator, single point]"}
{"smiles": "O=C1CC(SCc2nc3ccccc3[nH]2)C(=O)N1c1cccc(Cl)c1", "note": "(stereo not drawn)", "Potency": "inconclusive: 5.8 µM [activator, partial curve]"}
{"smiles": "COc1ccc(/C=N/n2cnn(Cc3ccccc3Cl)c2=S)cc1OC", "Potency": "inconclusive: 11.2 µM [inhibitor, partial curve]"}
{"smiles": "CCC(CC)C(=O)Nc1ccc(Nc2ccccc2)cc1", "Potency": "inactive"}
{"smiles": "O=c1c2c3c(sc2ncn1/N=C/c1ccccc1)CCCC3", "Potency": "inconclusive: 2.24 µM [activator, full curve, poor fit]"}
{"smiles": "O=C(CCCC(=O)N(c1ccc(F)cc1)C(C(=O)NC1CCCC1)c1ccc(O)cc1)Nc1ccccn1", "note": "(stereo not drawn)", "Potency": "inconclusive: 3.98 µM [inhibitor, partial curve, poor fit]"}
{"smiles": "CCCCCN(C(=O)NC(=O)Nc1nncs1)S(C)(=O)=O", "Potency": "inactive"}
{"smiles": "Cc1ccc(O)c(C(=O)c2cc(C(=O)NCCc3ccccc3)c(=O)n(CCc3ccccc3)c2)c1", "Potency": "inconclusive: 35.5 µM [inhibitor, partial curve, poor fit]"}
{"smiles": "O=C(NC(=S)Nc1ccccc1Cl)c1cncc(C#Cc2ccccc2)c1", "Potency": "inactive"}
{"smiles": "CCC(CC)C(=O)OCC(=O)C1(O)CCC2C3CCC4=CC(=O)CCC4(C)C3C(O)CC21C", "note": "(stereo not drawn)", "Potency": "inconclusive: 35.5 µM [inhibitor, single point]"}
{"smiles": "COc1ccccc1-n1c(-c2cn(C)nc2C)n[nH]c1=S", "Potency": "inconclusive: 2.82 µM [activator, full curve, poor fit]"}
{"smiles": "COc1cc(SC)ccc1C(=O)N1CC(C)OC(C)C1", "note": "(stereo not drawn)", "Potency": "inactive"}
{"smiles": "COc1cccc(C2CC(c3cccs3)=NN2C(=O)CSC2=NCCS2)c1OC", "note": "(stereo not drawn)", "Potency": "inconclusive: 11.2 µM [inhibitor, single point]"}
{"smiles": "CCCCCNC(=O)c1c[nH]c2ccc(S(=O)(=O)N3CCC4(CC3)OCCO4)cc2c1=O", "Potency": "inactive"}
{"smiles": "COc1ccc(CN(C)C(=O)Cc2ccsc2)c(OC)c1OC", "Potency": "inconclusive: 7.08 µM [inhibitor, partial curve, poor fit]"}
{"smiles": "CCS(=O)(=O)N1CCN(C(=O)c2ccccc2[N+](=O)[O-])CC1", "Potency": "inactive"}
{"smiles": "CC(Oc1ccccc1)C(=O)N(CCC1=CCCCC1)c1c(N)n(Cc2ccccc2)c(=O)[nH]c1=O", "note": "(stereo not drawn)", "Potency": "inconclusive: 7.94 µM [inhibitor, partial curve, poor fit]"}
{"smiles": "O=C(NC1CC2CCCC(C1)N2C(=O)NCc1ccccc1)C1CC1", "note": "(stereo not drawn)", "Potency": "inconclusive: 31.6 µM [activator, single point]"}
{"smiles": "CCCc1ccc(OCC(O)CN2CCCC2)cc1", "note": "(stereo not drawn)", "Potency": "inconclusive: 1 µM [activator, partial curve]"}
{"smiles": "OC(CNCc1ccc(F)cc1)(c1ccccc1)c1ccc(F)cc1", "note": "(stereo not drawn)", "Potency": "inactive"}
{"smiles": "Cc1ccc(C(C)C)cc1OCC(=O)NC1CCCCCCC1", "Potency": "inconclusive: 35.5 µM [inhibitor, single point]"}
{"smiles": "O=C(CCC(=O)Nc1ccc(F)cc1)N/N=C/c1cccnc1", "Potency": "inconclusive: 8.91 µM [activator, partial curve, poor fit]"}
{"smiles": "C/C(=N\\Nc1ccc(Cl)c(Cl)c1)c1ccc(-n2ccnc2)cc1", "Potency": "inconclusive: 35.5 µM [inhibitor, single point]"}
{"smiles": "CCOC(=O)c1ccc(NC(=S)NNC(=O)COC)cc1", "Potency": "inactive"}
{"smiles": "CC(=O)N(Cc1ccccc1C)c1cccc(C)c1C", "Potency": "inconclusive: 35.5 µM [inhibitor, single point]"}
{"smiles": "COc1ccc(/C=N/Nc2ncnc3sc4c(c23)CCCC4)cc1OC", "Potency": "inconclusive: 1.12 µM [inhibitor, partial curve, poor fit]"}
{"smiles": "COc1ccccc1NCC(=O)N/N=C/c1cccnc1", "Potency": "inactive"}
{"smiles": "Cc1ccc(N(CC(=O)NC2CCCCC2)C(=O)CNC(=O)c2ccco2)c(C)c1", "Potency": "inactive"}
{"smiles": "Cc1ccc(C(=O)NCCCNC(=O)c2ccccc2F)cn1", "Potency": "inactive"}
{"smiles": "Cc1cccc2nc(CNc3ccc(F)cc3)cn12", "Potency": "inconclusive: 1.26 µM [activator, full curve, poor fit]"}
{"smiles": "O=C(CN1CCN(CC(=O)Nc2cccc(F)c2)CC1)Nc1ccc(-c2ccccc2)cc1", "Potency": "inconclusive: 0.562 µM [inhibitor, full curve, poor fit]"}
{"smiles": "Cc1ccccc1C(=O)Nc1cccc(NC(=O)Cn2cnc3c(=O)n(C)c(=O)n(C)c32)c1", "Potency": "inconclusive: 20.6 µM [inhibitor, partial curve]"}
{"smiles": "CCOC(=O)c1c(NC(=O)CSc2cn(CCNC(=O)c3ccccc3F)c3ccccc23)sc2c1CCCC2", "Potency": "inactive"}
{"smiles": "O=C(Nc1ccccc1)c1csc(-c2ccccc2)n1", "Potency": "inconclusive: 35.5 µM [inhibitor, single point]"}
{"smiles": "Oc1c(Cl)cccc1C=Nc1cc(C(F)(F)F)ccc1N1CCCC1", "Potency": "inactive"}
{"smiles": "CCC(=O)c1ccc(N2CCC(C)CC2)c(F)c1", "Potency": "inactive"}
{"smiles": "Cc1cc2oc(C(=O)Nc3ccc(S(=O)(=O)N4CCCC(C)C4)cc3)cc(=O)c2cc1Cl", "note": "(stereo not drawn)", "Potency": "active: 11.2 µM"}
{"smiles": "CCC(=O)Nc1ccc(NC(=O)Cc2ccccc2)cn1", "Potency": "inconclusive: 6.31 µM [activator, single point]"}
{"smiles": "COC(=O)C1=C(C)N(CC2CC2)C(=O)NC1c1ccc(Br)cc1", "note": "(stereo not drawn)", "Potency": "inconclusive: 2.99 µM [activator, partial curve, poor fit]"}
{"smiles": "CC(=O)Nc1ccc(/C=N/NC(=O)c2cc3ccccc3nc2C)cc1", "Potency": "inactive"}
{"smiles": "COc1ccc(CN(C)C(=O)c2ccc(NS(=O)(=O)c3ccccc3)cc2)c(OC)c1", "Potency": "inconclusive: 35.5 µM [inhibitor, single point]"}
{"smiles": "Cc1cc(N2CCCC2=O)cc(C)c1S(=O)(=O)NCCOc1ccccc1", "Potency": "inactive"}
{"smiles": "COc1ccc(/C=N/NC(=S)Nc2ccccc2)cc1COc1ccc(F)cc1F", "Potency": "inconclusive: 2 µM [inhibitor, partial curve, poor fit]"}
{"smiles": "CCOC(=O)Oc1ccc2oc(C)c(C(=O)OCCOC)c2c1", "Potency": "inactive"}
{"smiles": "COc1ccc(C(=O)NNC(=S)NC(=O)c2cccs2)cc1", "Potency": "inconclusive: 35.5 µM [inhibitor, partial curve, poor fit]"}
{"smiles": "Cc1ccsc1/C=C1\\SC(N)=NC1=O", "Potency": "inconclusive: 35.5 µM [activator, single point]"}
{"smiles": "Cc1ccc(CN2CCC=CS2(=O)=O)cc1", "Potency": "inconclusive: 7.91 µM [activator, partial curve, poor fit]"}
{"smiles": "CC(C)[C@@H](OCc1ccccc1)[C@H](C)C=NOC[C@@H](O)COCc1ccco1", "Potency": "inconclusive: 0.0299 µM [activator, full curve, poor fit]"}
{"smiles": "c1cnc2ccc(C(c3nnnn3C3CCCC3)N3CCN(c4nc5ccccc5s4)CC3)cc2c1", "note": "(stereo not drawn)", "Potency": "inconclusive: 15.8 µM [inhibitor, partial curve, poor fit]"}
{"smiles": "CC(=O)c1c(C)[nH]c(C(=O)NC2CCCCC2)c1C", "Potency": "inactive"}
{"smiles": "CCOC(=O)C1=C(C)N(C)C(=S)NC1c1ccc(Cl)cc1", "note": "(stereo not drawn)", "Potency": "inconclusive: 0.398 µM [activator, partial curve, poor fit]"}
{"smiles": "COc1cc(NS(=O)(=O)c2ccc3ccccc3c2)c2ncccc2c1", "Potency": "inconclusive: 22.4 µM [inhibitor, partial curve, poor fit]"}
{"smiles": "CC(C)(C)c1cc(CCC(=O)NNC(=S)NC(=O)c2ccccc2)cc(C(C)(C)C)c1O", "Potency": "inconclusive: 1.64 µM [inhibitor, partial curve, poor fit]"}
{"smiles": "COc1ccc(C(=O)NCC(=O)OCC(=O)N2CCCc3ccccc32)cc1", "activity change, negative = inhibition": "inconclusive: 0.936% [activator] [at 46.1 µM]"}
{"smiles": "CCOC(=O)c1ccc(NC(=O)c2nn(C)c3c2COc2ccccc2-3)cc1", "Potency": "inconclusive: 10 µM [inhibitor, partial curve, poor fit]"}
{"smiles": "CCN(CC)C(=O)C1CCCN(Cc2ccc3ccccc3c2)C1", "note": "(stereo not drawn)", "Potency": "inconclusive: 17.8 µM [inhibitor, single point]"}
{"smiles": "CCOc1ccccc1N(CC(=O)NCCSc1ccccc1)S(C)(=O)=O", "Potency": "inconclusive: 5.62 µM [activator, single point]"}
{"smiles": "Cc1ccc(C(=O)C[n+]2cc(-c3ccc(C)cc3)n3c2CCCCC3)cc1", "Potency": "inconclusive: 12.6 µM [inhibitor, partial curve, poor fit]"}
{"smiles": "Cc1onc(-c2c(Cl)cccc2Cl)c1CO/N=C(\\C#N)c1c(Cl)cccc1Cl", "Potency": "inconclusive: 11.2 µM [inhibitor, partial curve, poor fit]"}
